In experiment [1] the target is T1, FEZ1-HA (human FEZ1 with a C-terminal HA tag) (human) (UniProt Q99689).
T1 sequence: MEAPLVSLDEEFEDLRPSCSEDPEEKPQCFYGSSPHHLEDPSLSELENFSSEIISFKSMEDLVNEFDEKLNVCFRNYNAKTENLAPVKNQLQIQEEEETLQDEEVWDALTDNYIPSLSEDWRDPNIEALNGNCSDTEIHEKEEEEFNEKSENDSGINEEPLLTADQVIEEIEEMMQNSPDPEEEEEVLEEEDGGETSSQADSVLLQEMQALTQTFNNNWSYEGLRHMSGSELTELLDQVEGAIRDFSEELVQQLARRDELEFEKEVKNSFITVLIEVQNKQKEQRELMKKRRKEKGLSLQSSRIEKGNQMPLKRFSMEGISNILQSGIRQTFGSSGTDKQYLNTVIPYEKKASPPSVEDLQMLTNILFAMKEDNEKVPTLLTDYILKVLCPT
The experiment is described as follows: co-immunoprecipitation from transfected HEK293T cells.

The target in experiment [2] is DISC1 C-terminal domain (amino acids 348-854) in pAS2-1, yeast two-hybrid bait (human). The experiment is described as follows: yeast two-hybrid, alpha-galactosidase assay.
The target is the same in experiment [3]. The experiment is described as follows: yeast two-hybrid screen of a human adult brain cDNA library with DISC1 348-854 as bait.
The target of experiment [4] is T1, FEZ1-HA (human FEZ1 with a C-terminal HA tag) (human). The experiment is described as follows: reciprocal co-immunoprecipitation from transfected HEK293T cells.

From US20080107600A1 come the findings set out here.

No constants are given. Whether binding was seen depends on the method and setting. For some assays here: In cells and extracts the contact can be indirect. Some entries that bind do so weakly or less than the wild type. For some assays here: Tags and fused reporters may be left off the sequences shown.

B1: DISC1/BR-FLAG (FEZ1-binding region of DISC1, amino acids 446-633, FLAG-tagged) (protein, not shown: small tags and cut ends)
chain: DSLHVSITRRDWLLQEKQQLQKEIEALQARMFVLEAKDQQLRREIEEQEQQLQWQGCDLTPLVGQLSLGQLQEVSKALQDTLASAGQIPFHAEPPETIRSLQERIKSLNLSLKEITTKVCMSEKFCSTLRKKVNDIETQLPALLEAKMHAISGNHFWTAKDLTEEIRSLTSEREGLEGLLSKLLVLSS
As to B1, the binding entry in experiment [1] is listed as “binds”.

B2: FEZ1 C-terminal fragment (amino acids 247-392) in pACT2 (protein, not shown: large carriers)
chain: SEELVQQLARRDELEFEKEVKNSFITVLIEVQNKQKEQRELMKKRRKEKGLSLQSSRIEKGNQMPLKRFSMEGISNILQSGIRQTFGSSGTDKQYLNTVIPYEKKASPPSVEDLQMLTNILFAMKEDNEKVPTLLTDYILKVLCPT
For B2, the binding entry in experiment [2] is on record as “binds”.

B3: FEZ1 partial clone (amino acids 129-392) from the human adult brain cDNA library (protein, not shown: large carriers)
chain: LNGNCSDTEIHEKEEEEFNEKSENDSGINEEPLLTADQVIEEIEEMMQNSPDPEEEEEVLEEEDGGETSSQADSVLLQEMQALTQTFNNNWSYEGLRHMSGSELTELLDQVEGAIRDFSEELVQQLARRDELEFEKEVKNSFITVLIEVQNKQKEQRELMKKRRKEKGLSLQSSRIEKGNQMPLKRFSMEGISNILQSGIRQTFGSSGTDKQYLNTVIPYEKKASPPSVEDLQMLTNILFAMKEDNEKVPTLLTDYILKVLCPT
B3: the binding result in experiment [3] was “binds”.

B4: DISC1-FLAG (full-length human DISC1 with a C-terminal FLAG tag) (protein, not shown: small tags and cut ends)
chain: MPGGGPQGAPAAAGGGGVSHRAGSRDCLPPAACFRRRRLARRPGYMRSSTGPGIGFLSPAVGTLFRFPGGVSGEESHHSESRARQCGLDSRGLLVRSPVSKSAAAPTVTSVRGTSAHFGIQLRGGTRLPDRLSWPCGPGSAGWQQEFAAMDSSETLDASWEAACSDGARRVRAAGSLPSAELSSNSCSPGCGPEVPPTPPGSHSAFTSSFSFIRLSLGSAGERGEAEGCPPSREAESHCQSPQEMGAKAASLDGPHEDPRCLSQPFSLLATRVSADLAQAARNSSRPERDMHSLPDMDPGSSSSLDPSLAGCGGDGSSGSGDAHSWDTLLRKWEPVLRDCLLRNRRQMEVISLRLKLQKLQEDAVENDDYDKAETLQQRLEDLEQEKISLHFQLPSRQPALSSFLGHLAAQVQAALRRGATQQASGDDTHTPLRMEPRLLEPTAQDSLHVSITRRDWLLQEKQQLQKEIEALQARMFVLEAKDQQLRREIEEQEQQLQWQGCDLTPLVGQLSLGQLQEVSKALQDTLASAGQIPFHAEPPETIRSLQERIKSLNLSLKEITTKVCMSEKFCSTLRKKVNDIETQLPALLEAKMHAISGNHFWTAKDLTEEIRSLTSEREGLEGLLSKLLVLSSRNVKKLGSVKEDYNRLRREVEHQETAYETSVKENTMKYMETLKNKLCSCKCPLLGKVWEADLEACRLLIQSLQLQEARGSLSVEDERQMDDLEGAAPPIPPRLHSEDKRKTPLKVLEEWKTHLIPSLHCAGGEQKEESYILSAELGEKCEDIGKKLLYLEDQLHTAIHSHDEDLIQSLRRELQMVKETLQAMILQLQPAKEAGEREAAASCMTAGVHEAQA
In the case of B4, the binding entry in experiment [1] and in experiment [4] was “binds” throughout.
